The assay has as its target tripartite motif containing 28 (TRIM28) (human (endogenous in HeLa)) (UniProt Q13263). The assay can be described thus: co-IP; HeLa cells transfected with GST-KRAB fusion plasmids; extracts in buffer TST (20 mM TRIS/HCl pH 7.5, 60 mM KCl, 15 mM NaCl, 10 mM MgCl2, 1 mM CaCl2, 250 mM sucrose, 0.5% Triton X-100); endogenous TRIM28 precipitated with mouse monoclonal anti-TRIM28 (1Tb1A9) and magnetic protein G beads; Western blot with anti-GST.

Amino acid sequences for entries named in this document (tags omitted). Residues count along the entry.
UniProt Q13263: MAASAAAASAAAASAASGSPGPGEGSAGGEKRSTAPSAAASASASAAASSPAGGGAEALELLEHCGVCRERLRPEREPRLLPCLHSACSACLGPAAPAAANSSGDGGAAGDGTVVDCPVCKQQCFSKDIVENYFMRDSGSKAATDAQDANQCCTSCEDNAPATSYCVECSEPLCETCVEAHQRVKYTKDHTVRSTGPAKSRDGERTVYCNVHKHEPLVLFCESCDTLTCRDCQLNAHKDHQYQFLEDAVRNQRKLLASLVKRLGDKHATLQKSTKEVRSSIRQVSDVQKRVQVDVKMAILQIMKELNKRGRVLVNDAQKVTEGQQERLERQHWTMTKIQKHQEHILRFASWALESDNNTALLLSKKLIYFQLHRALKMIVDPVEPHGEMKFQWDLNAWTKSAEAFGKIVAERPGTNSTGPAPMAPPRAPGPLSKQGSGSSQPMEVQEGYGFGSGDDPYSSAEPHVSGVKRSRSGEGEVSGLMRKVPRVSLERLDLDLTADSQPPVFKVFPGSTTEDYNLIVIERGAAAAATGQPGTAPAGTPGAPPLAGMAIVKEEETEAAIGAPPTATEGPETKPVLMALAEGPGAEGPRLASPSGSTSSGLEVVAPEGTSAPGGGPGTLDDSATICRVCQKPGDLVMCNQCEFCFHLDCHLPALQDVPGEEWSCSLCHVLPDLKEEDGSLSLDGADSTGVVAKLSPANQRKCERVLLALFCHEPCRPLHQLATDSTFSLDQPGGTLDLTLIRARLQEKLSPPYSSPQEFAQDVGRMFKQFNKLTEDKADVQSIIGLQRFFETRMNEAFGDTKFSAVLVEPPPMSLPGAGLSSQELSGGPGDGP
UniProt Q9NQV7, residues 24-97: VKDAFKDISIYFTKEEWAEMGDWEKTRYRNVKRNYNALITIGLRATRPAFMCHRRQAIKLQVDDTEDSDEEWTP

Results are given in words; binding and its absence hold for the method and conditions named. Binding seen in cells or lysates may run through a third protein.

With “GST-PRDM9-A/24-97 (from UniProt Q9NQV7 24-97) (domain or fragment)”, the binding result is listed as “no binding”.

The values are drawn from PMC8835667.
